Source: US20180066261A1
Results are given in words; binding and its absence hold for the method and conditions named. Binding seen in cells or lysates may run through a third protein. Some entries that bind do so weakly or less than the wild type.

Protein sequences, listed by entry. Tags and fused reporters are not part of them. Lines headed by an entry give the natural chain unless they say otherwise; changes in a name come on top.
UniProt P10644: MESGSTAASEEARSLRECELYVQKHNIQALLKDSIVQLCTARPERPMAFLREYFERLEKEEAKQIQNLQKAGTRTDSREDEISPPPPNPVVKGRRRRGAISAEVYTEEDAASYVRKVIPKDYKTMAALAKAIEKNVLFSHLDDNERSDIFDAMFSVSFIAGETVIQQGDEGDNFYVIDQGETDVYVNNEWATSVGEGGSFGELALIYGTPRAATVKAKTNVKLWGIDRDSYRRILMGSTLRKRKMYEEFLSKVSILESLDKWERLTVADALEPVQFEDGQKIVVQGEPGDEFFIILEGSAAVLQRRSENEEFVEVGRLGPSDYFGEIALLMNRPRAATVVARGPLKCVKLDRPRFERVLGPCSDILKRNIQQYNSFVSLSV
UniProt P35250: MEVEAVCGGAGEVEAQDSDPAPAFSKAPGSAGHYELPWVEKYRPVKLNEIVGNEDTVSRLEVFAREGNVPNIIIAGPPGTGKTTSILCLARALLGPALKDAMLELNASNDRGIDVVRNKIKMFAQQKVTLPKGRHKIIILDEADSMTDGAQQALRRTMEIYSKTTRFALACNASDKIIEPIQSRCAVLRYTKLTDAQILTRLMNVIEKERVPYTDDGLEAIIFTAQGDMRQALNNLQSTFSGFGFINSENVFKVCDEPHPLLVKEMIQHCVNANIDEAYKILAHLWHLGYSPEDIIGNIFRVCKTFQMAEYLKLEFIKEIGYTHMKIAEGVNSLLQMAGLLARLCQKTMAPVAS

Target: RIα, regulatory subunit of Protein Kinase A (PKA) (UniProt P10644)
Experiment: co-immunoprecipitation from MCF7 cell lysates with anti-RFC40 antibody; interaction present in untreated control, lost after treatment with the small molecule indole-3-carbinol

binding: binds
Substance: Replication Factor C 40 (RFC40) (from UniProt P35250 1-354)
